Patent publication US20080025968A1
Results are given in words; binding and its absence hold for the method and conditions named. Binding seen in cells or lysates may run through a third protein. Some results given as binding are weak or reduced against the parent protein; the word gives no strength. Sequences can lack the tags named with a protein.

Experiments:
[1] = target: T1, HIS-SIVA1 (human SIVA1 in pcDNA3.1-HIS) (human) (UniProt O15304); experiment: co-immunoprecipitation from transfected HEK293 cells
T1 sequence: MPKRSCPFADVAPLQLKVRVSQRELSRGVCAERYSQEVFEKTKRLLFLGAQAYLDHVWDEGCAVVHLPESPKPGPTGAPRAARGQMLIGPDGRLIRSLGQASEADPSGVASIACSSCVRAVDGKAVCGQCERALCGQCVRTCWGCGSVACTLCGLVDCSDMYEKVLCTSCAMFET

[2] = target: T1, HIS-SIVA1 (human SIVA1 in pcDNA3.1-HIS) (human); experiment: co-immunoprecipitation from transfected HEK293T cells

binding [1]: binds
binding [2]: binds
B1: myc-aly NIK (human NIK with the G860R mutation corresponding to the mouse aly mutation) (enzyme)
chain: EQKLISEEDLMAVMEMACPGAPGSAVGQQKELPKPKEKTPPLGKKQSSVYKLEAVEKSPVFCGKWEILNDVITKGTAKEGSEAGPAAISIIAQAECENSQEFSPTFSERIFIAGSKQYSQSESLDQIPNNVAHATEGKMARVCWKGKRRSKARKKRKKKSSKSLAHAGVALAKPLPRTPEQESCTIPVQEDESPLGAPYVRNTPQFTKPLKEPGLGQLCFKQLGEGLRPALPRSELHKLISPLQCLNHVWKLHHPQDGGPLPLPTHPFPYSRLPHPFPFHPLQPWKPHPLESFLGKLACVDSQKPLPDPHLSKLACVDSPKPLPGPHLEPSCLSRGAHEKFSVEEYLVHALQGSVSSSQAHSLTSLAKTWAARGSRSREPSPKTEDNEGVLLTEKLKPVDYEYREEVHWATHQLRLGRGSFGEVHRMEDKQTGFQCAVKKVRLEVFRAEELMACAGLTSPRIVPLYGAVREGPWVNIFMELLEGGSLGQLVKEQGCLPEDRALYYLGQALEGLEYLHSRRILHGDVKADNVLLSSDGSHAALCDFGHAVCLQPDGLGKSLLTGDYIPGTETHMAPEVVLGRSCDAKVDVWSSCCMMLHMLNGCHPWTQFFRGPLCLKIASEPPPVREIPPSCAPLTAQAIQEGLRKEPIHRVSAAELGGKVNRALQQVGGLKSPWRGEYKEPRHPPPNQANYHQTLHAQPRELSPRAPGPRPAEETTGRAPKLQPPLPPEPPEPNKSPPLTLSKEESGMWEPLPLSSLEPAPARNPSSPERKATVPEQELQQLEIELFLNSLSQPFSLEEQEQILSCLSIDSLSLSDDSEKNPSKASQSSRDTLSSGVHSWSSQAEARSSSWNMVLARGRPTDTPSYFNRVKVQIQSLNGEHLHIREFHRVKVGDIATGISSQIPAAAFSLVTKDGQPVRYDMEVPDSGIDLQCTLAPDGSFAWSWRVKHGQLENRP
